Results on one substance are retold here after doi:10.1101/2024.07.08.601072.

Sequences of proteins named here, by UniProt entry; tags and fusion partners are left off.
UniProt Q03280: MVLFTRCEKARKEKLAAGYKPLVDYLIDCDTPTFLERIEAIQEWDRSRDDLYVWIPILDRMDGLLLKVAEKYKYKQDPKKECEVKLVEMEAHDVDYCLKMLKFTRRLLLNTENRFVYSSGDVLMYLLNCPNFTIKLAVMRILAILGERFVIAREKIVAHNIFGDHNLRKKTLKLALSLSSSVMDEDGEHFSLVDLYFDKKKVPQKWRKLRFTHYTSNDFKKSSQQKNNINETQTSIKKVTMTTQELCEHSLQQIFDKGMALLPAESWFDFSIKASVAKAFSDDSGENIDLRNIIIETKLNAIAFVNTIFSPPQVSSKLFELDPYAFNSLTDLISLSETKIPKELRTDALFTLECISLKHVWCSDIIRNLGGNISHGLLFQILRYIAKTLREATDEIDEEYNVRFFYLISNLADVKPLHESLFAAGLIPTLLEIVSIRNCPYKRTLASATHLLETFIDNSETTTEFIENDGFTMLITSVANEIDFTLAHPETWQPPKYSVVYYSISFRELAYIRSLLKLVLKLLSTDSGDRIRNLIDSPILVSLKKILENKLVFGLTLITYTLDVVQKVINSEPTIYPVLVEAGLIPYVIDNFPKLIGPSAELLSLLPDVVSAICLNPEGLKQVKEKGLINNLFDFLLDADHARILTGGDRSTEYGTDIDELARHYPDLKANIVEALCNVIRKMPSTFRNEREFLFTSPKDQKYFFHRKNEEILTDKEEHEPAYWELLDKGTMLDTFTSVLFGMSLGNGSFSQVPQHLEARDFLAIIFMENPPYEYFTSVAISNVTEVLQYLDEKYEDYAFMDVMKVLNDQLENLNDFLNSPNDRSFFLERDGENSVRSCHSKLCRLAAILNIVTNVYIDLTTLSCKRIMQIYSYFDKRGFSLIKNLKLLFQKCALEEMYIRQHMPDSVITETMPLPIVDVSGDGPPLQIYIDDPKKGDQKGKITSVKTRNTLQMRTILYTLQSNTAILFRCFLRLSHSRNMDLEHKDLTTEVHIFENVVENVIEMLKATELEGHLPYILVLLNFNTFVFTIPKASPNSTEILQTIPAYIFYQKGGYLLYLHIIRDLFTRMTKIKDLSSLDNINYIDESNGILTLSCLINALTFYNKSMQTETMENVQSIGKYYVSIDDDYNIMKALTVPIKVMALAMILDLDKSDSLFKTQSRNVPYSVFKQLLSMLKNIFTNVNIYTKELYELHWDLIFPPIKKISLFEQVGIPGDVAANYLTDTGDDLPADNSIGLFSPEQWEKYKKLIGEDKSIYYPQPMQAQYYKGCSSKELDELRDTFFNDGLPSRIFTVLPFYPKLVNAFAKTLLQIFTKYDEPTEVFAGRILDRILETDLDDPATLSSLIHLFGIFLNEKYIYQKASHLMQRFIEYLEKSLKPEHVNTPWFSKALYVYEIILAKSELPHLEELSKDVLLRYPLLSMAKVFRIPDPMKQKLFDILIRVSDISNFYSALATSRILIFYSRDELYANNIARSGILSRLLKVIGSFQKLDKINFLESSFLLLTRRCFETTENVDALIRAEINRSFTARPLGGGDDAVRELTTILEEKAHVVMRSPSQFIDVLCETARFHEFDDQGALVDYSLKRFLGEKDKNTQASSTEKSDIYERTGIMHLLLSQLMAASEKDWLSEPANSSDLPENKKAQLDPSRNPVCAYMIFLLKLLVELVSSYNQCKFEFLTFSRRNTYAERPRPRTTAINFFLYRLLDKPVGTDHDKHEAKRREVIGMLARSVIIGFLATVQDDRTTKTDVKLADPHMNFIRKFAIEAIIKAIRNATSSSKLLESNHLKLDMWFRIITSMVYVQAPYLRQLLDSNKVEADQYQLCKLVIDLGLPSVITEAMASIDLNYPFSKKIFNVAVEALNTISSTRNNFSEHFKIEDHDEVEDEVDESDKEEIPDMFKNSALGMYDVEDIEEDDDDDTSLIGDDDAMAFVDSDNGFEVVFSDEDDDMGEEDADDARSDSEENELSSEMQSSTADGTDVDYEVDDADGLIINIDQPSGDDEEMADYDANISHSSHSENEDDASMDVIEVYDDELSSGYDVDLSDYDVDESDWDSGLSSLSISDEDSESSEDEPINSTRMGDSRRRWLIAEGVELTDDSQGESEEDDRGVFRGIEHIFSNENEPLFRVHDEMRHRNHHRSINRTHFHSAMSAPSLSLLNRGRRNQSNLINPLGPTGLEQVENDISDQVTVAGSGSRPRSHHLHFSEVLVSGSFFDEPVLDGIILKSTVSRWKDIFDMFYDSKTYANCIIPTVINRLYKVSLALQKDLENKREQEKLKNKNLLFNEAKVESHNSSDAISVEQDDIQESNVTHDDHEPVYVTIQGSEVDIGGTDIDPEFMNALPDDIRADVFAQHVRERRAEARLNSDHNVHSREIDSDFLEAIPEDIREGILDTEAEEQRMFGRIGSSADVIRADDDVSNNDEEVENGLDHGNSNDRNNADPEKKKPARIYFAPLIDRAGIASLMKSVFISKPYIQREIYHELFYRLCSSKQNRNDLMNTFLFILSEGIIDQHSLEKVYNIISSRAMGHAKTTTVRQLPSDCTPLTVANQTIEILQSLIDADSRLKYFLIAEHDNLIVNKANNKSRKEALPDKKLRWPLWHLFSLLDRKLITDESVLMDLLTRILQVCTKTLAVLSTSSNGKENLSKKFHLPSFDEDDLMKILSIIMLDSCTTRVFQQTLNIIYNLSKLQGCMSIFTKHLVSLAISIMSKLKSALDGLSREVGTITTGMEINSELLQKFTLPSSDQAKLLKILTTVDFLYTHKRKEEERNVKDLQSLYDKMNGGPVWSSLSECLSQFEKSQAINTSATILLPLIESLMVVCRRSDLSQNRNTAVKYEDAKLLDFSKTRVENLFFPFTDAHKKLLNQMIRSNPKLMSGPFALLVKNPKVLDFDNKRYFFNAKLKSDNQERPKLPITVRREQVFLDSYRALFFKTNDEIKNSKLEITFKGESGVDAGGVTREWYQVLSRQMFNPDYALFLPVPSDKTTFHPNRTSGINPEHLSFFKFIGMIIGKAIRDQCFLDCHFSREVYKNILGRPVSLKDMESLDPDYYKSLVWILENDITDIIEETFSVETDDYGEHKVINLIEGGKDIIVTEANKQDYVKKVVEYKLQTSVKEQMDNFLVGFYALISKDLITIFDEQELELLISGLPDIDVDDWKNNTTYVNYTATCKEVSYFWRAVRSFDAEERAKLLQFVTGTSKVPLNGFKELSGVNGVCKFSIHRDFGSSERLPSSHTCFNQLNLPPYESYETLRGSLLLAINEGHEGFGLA

These are yes or no findings as the source states them, for the method shown. In cells and extracts the contact can be indirect. A yes stands for co-enrichment or nearness to the bait. Other partners may have been found. Tags and fused reporters may be left off the sequences shown.

For this assay, the target named is T1, Streptavidin-FLAG-Spt6p^tSH2 (S. cerevisiae) (UniProt P23615).
T1 sequence: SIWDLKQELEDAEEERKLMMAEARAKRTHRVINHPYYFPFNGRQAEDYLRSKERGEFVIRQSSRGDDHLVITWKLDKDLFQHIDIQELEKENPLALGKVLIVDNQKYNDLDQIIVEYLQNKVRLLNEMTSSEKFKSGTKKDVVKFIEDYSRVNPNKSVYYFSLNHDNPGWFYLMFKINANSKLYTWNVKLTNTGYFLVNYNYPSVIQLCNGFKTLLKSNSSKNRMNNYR
In words: affinity purification with mass spectrometry.

As to “Tom1p (endogenous) (from UniProt Q03280 1-3268)”, the binding entry is listed as “binds”.
